Measured values reported in article PMC12508128.
No constants are given. Whether binding was seen depends on the method and setting. For some of these results: In cells and extracts the contact can be indirect. Some entries that bind do so weakly or less than the wild type.

Protein sequences, listed by entry. Tags and fused reporters are not part of them. Lines headed by an entry give the natural chain unless they say otherwise; changes in a name come on top. Residues count along the entry.
UniProt Q9NZQ7: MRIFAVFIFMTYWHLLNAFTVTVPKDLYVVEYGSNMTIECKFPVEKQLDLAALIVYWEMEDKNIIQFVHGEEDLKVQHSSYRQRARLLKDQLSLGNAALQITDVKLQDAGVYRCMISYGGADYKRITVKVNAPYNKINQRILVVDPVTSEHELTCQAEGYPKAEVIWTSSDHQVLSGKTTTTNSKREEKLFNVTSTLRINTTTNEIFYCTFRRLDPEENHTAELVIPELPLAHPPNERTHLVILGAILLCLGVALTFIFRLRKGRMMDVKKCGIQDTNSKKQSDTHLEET
UniProt P40189, residues 23-918: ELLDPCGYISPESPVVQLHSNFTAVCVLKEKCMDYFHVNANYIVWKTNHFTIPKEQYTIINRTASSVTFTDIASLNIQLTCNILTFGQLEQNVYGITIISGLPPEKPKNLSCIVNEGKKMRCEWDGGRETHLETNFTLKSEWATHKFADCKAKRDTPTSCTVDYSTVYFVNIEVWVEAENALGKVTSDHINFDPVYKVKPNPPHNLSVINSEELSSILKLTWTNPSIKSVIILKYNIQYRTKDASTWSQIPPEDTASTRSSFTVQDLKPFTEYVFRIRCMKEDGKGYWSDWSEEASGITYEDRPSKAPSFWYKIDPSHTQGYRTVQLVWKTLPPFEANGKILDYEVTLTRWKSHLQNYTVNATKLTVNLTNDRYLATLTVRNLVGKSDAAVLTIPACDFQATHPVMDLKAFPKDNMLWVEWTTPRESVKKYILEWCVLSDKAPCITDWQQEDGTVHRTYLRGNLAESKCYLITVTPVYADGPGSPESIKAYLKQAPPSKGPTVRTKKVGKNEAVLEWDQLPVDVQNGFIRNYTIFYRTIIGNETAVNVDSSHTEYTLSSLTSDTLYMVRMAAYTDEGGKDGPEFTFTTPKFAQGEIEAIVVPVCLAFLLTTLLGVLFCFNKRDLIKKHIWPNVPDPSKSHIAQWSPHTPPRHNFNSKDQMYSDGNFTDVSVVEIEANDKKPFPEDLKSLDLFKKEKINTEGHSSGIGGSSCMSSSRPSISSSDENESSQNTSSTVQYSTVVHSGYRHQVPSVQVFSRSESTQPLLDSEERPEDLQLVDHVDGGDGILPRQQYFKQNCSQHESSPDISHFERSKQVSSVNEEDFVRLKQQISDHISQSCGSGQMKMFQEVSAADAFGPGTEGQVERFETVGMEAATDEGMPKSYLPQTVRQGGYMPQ
UniProt Q15116, residues 25-288: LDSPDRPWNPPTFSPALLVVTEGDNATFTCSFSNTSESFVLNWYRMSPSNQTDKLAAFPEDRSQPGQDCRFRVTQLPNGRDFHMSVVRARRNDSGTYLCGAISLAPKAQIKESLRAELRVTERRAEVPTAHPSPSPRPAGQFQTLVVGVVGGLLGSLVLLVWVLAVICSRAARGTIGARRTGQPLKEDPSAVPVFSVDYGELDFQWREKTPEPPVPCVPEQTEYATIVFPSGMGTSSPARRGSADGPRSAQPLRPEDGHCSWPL

Tests used:
[1] = molecular target: programmed death-ligand 1 (PD-L1) (human (endogenous in GBM cell lines T98/U87)) (UniProt Q9NZQ7); test: co-IP; GBM cell lysates incubated overnight at 4 °C with specific primary antibodies and Protein A + G magnetic beads; immunoprecipitates analysed by Western blot; endogenous proteins
[2] = molecular target: glycoprotein 130 (GP130) (human (endogenous in GBM cell lines T98/U87)) (UniProt P40189); test: as above
[3] = molecular target: glycoprotein 130 (GP130) (human (endogenous in GBM cell lines T98/U87)) (UniProt P40189); test: cellular thermal shift assay (CETSA); GBM cells incubated with rPD-L1 or vehicle at 25 °C for 30 min, suspended in 1x PBS, heated 3 min at five temperatures from 45 °C to 65 °C, freeze-thaw lysis, centrifuged; GP130 detected by Western blot; only the binder purified

Substance | binding [2] | other results
glycoprotein 130 (GP130) (from UniProt P40189 23-918) (receptor) |  | binding [1]: binds
programmed death-1 (PD-1) (from UniProt Q15116 25-288) (receptor) | binds | 
programmed death-ligand 1 (PD-L1) (from UniProt Q9NZQ7 19-290) | binds | 
recombinant human PD-L1 (rPD-L1) (from UniProt Q9NZQ7 19-238) (ligand) |  | binding [3]: binds
